Data as given in PMC8317538.
No constants are given. Whether binding was seen depends on the method and setting. In cells and extracts the contact can be indirect. Some entries that bind do so weakly or less than the wild type.

The chains behind the UniProt entries cited, without tags or fusion partners.
UniProt Q15910: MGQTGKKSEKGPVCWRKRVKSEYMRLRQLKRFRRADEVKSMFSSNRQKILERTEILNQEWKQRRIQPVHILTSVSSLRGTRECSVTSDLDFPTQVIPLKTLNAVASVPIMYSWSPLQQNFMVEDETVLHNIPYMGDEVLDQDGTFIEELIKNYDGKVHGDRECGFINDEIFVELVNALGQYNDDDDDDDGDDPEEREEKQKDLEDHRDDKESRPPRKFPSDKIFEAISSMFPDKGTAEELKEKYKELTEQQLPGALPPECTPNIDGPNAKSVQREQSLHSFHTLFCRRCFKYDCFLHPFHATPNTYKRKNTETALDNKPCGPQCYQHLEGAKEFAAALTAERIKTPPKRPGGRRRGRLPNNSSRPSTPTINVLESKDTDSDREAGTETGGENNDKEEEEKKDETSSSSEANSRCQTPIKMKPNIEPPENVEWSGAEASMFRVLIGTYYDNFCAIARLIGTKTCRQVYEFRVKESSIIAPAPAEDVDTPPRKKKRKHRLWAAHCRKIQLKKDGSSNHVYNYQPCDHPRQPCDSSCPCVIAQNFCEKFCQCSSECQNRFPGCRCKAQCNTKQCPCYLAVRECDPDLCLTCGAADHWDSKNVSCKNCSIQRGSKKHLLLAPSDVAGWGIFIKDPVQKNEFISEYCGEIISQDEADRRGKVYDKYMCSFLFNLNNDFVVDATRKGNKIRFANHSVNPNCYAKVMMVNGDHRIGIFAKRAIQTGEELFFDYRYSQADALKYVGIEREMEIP
UniProt P40763: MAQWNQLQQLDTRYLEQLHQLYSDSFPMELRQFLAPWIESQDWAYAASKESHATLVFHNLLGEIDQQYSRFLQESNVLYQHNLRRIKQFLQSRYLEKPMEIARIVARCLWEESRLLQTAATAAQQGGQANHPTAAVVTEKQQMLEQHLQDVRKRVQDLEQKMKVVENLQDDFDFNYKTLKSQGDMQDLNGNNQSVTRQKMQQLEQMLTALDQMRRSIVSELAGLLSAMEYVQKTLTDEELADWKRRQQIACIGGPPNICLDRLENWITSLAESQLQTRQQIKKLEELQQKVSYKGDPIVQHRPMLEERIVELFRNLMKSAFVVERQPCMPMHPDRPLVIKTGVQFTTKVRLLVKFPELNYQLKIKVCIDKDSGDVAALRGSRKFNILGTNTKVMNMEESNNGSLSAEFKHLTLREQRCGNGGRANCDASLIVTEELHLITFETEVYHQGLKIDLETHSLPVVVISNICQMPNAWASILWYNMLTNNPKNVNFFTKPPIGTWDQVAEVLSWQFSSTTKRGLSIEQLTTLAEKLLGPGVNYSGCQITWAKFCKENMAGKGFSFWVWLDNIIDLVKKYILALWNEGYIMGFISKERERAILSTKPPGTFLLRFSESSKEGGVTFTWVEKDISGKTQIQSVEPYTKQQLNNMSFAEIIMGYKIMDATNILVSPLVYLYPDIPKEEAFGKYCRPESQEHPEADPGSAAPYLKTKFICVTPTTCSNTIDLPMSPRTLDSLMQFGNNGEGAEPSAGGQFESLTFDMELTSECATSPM

Target: Enhancer of zeste homolog 2 (EZH2) (human (endogenous in breast cancer cell lines)) (UniProt Q15910)
Assay: co-IP; endogenous proteins of breast cancer cells (line not given); total protein in immunoprecipitation lysis buffer, anti-EZH2 or anti-STAT3 antibody for 8 hrs, Protein A/G-coated agarose at 4°C for 4 hrs, SDS-PAGE and immunoblot; reciprocal

binding: binds
Substance: Signal transducer and activator of transcription 3 (STAT3) (from UniProt P40763 1-770)
